Data reported in patent EP1944296A1, “Amorphous phase of a substituted pyrazoline, its preparation and use as medicaments” (Laboratorios del Dr. Esteve S.A., priority 2007, dated 2008).
For at least one compound, name, drawing or mass did not settle the structure.

Key:
[1] = Feeding study in dietary-induced obese rats (food intake and body weight); type: in vivo, female Wistar rats; conditions: for daily food intake / palatable food intake: Figure 2; for palatable food intake: first day of drug administration, vs vehicle
[2] = Effect of continued administration on body weight in rats; type: in vivo; conditions: Figure 1

## O=C(NN1CCCCC1)C1=NN(c2ccc(Cl)cc2Cl)[C@@H](c2ccc(Cl)cc2)C1 [Example 1, (R)-N-piperidinyl-5-(4-chlorophenyl)-1-(2,4-dichlorophenyl)-4,5-dihydro-1H-pyrazole-3-carboxamide]
[1]; 10 mg/kg po once daily, Days 2 to 7, vs control group
  daily food intake: significantly lower
[1]; 10 mg/kg po
  palatable food intake: significantly reduced
[1]; 30 mg/kg po once daily, Days 2 to 10 and Day 15, vs control group
  daily food intake: significantly lower
[1]; 30 mg/kg po
  palatable food intake: significantly reduced
[1]; either dose (10 and 30 mg/kg po), Day 2 and every other day of the drug treatment period, Figure 3
  body weights vs control group: significantly lower
[2]; 10 mg/kg i.p. once daily, days 8-21, compared with racemate (Cpd. X)
  effect on body weight: stronger action than the racemate
[2]; after end of treatment (10 mg/kg i.p. once daily), days 23-36, compared with racemate
  recovery of weight: slower recovery of weight
